Experimental data from PMC10790784.
These are yes or no findings as the source states them, for the method shown. Binding seen in cells or lysates may run through a third protein. Some binding calls cover weakened binding; strength is not graded here.

Protein sequences, listed by entry. Tags and fused reporters are not part of them. Residues count along the entry.
UniProt Q9QR71, residues 1-435: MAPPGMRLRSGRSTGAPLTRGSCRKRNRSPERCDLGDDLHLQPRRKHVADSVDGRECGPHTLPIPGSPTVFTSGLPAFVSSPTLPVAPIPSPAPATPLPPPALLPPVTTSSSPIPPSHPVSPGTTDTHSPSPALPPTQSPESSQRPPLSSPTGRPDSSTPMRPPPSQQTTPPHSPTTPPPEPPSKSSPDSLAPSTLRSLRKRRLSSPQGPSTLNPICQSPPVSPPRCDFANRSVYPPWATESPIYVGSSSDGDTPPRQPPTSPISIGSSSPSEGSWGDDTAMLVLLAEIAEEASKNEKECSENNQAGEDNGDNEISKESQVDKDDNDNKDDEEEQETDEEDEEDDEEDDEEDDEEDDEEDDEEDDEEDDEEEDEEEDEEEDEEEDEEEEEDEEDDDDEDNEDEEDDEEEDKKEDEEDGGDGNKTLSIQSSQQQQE
UniProt Q16665: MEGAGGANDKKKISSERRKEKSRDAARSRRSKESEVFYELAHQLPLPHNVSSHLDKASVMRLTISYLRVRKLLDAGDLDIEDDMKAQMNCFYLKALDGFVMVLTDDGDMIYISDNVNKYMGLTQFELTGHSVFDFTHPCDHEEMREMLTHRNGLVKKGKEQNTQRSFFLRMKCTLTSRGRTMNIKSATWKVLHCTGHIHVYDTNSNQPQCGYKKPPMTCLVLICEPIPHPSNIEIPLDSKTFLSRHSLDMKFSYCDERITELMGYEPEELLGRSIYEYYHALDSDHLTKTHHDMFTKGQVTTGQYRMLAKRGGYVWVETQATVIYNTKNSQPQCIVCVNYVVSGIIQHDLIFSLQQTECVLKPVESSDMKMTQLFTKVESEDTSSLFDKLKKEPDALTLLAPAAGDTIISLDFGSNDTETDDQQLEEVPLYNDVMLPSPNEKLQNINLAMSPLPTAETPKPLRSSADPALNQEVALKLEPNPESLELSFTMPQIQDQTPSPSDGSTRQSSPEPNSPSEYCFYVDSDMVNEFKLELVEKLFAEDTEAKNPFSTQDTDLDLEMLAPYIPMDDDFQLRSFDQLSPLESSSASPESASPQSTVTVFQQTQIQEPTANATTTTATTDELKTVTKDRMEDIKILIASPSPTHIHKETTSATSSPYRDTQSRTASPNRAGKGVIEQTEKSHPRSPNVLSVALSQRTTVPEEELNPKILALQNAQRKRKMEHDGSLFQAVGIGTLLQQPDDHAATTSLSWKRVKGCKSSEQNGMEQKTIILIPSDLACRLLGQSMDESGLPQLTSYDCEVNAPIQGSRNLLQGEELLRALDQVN

Target: GST-tagged N-terminal domain of LANA (1-435 amino acids) (KSHV) (UniProt Q9QR71)
Assay: pull-down; only the target purified

| Substance | binding |
| --- | --- |
| Myc-HIF1α (from UniProt Q16665 1-826) | binds |
| hypoxia inducible factor HIF1α, endogenous (from UniProt Q16665 1-826) | binds |
